Literature values as cited in patent US9624272B2, “Polypeptides for treating and/or limiting influenza infection” (UNIVERSITY OF WASHINGTON THROUGH ITS CENTER FOR …, priority 2013, dated 2017).
At least one structure is not confirmed: it was looked up by name or label, or the drawing left a doubt.

Test system: HA
Details: background statement; cited from earlier work

SMILES: CC(=O)N[C@H]1[C@H]([C@H](O)[C@H](O)CO)OC(O)(C(=O)O)C[C@@H]1O (stereo partly shown) [sialic acid]
- binding of HA to its receptor sialic acid: very weak (low mM)
